Data reported in PubChem BioAssay AID624297 (National Center for Advancing Translational Sciences (NCATS), 2012).
In all, about 340,000 compounds went through this assay and about 6,200 (1.8%) were called active. Inconclusive results, whose numbers are uncertain, are shown with a selection of clear calls. Calls come from the whole dose curve; as a rule, active = well fitted activation curve with a large enough effect; inconclusive = small, poorly fitted or top-dose-only effect; inactive = no such curve, though single readings can be large or run the other way. Where the call is inconclusive, the potency comes from a doubtful curve fit.

Assay: A quantitative high throughput screen for small molecules that induce DNA re-replication in SW480 colon adenocarcinoma cells. For re-replication activation: % of control where 0% means no effect. Note: nearly all actives have a fitted effect of over 55% in size.
Conditions: Hoechst DNA content imaging, 48 h; re-replication activation: at 46.1 µM (top of the series) unless noted
How it was run: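 Cells (250 per well) received 23 nL compound or DMSO by pin tool and were kept 48 hr at 37 C, 5% CO2. Nuclei were then stained with Hoechst for 40 min and scanned for DNA content.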
Potency is the fitted concentration of half-maximal effect.

Structure (SMILES) | Potency | re-replication activation
Cn1c(Sc2ccc(Br)cc2)c(C=O)c2ccccc21 | inconclusive: 16.4 µM [activator, single point] | 
COCCN(CC(=O)Nc1cccc(C)c1C)C(=O)c1ccc(S(=O)(=O)N2CCOCC2)cc1 | inconclusive: 14.6 µM [activator, single point] | 
Cc1occc1C(=O)Nc1ccc2c(c1)OCCO2 |  | inactive: -2.31%
COc1ccc(-c2cc(C(F)(F)F)n3nc(C(=O)NCCCN4CCOCC4)cc3n2)cc1 | active: 8.2 µM | 
COCCNC(=O)/C(C#N)=C/c1cccc(NC(=O)c2ccccc2Cl)c1 | inconclusive: 10.3 µM [activator, partial curve, poor fit] | 
CC(C)OCCCNc1nc(-c2ccccc2)nc2ccccc12 | inconclusive: 6.51 µM [activator, single point] | 
COc1ccc(-c2cc(C(=O)N3CCOCC3)no2)cc1 |  | inactive: -1.03%
COC(=O)CC1COc2ccccc2N1C(=O)/C=C/c1ccccc1 (stereo not given) | inconclusive: 2.59 µM [activator, partial curve, poor fit] | 
CCc1cc(C(c2ccncc2)N2CCN(C)CC2)c(NC(=O)c2ccccc2)s1 (stereo not given) |  | inactive: -693%
Cc1cccc(N2CCN(C(=O)c3ccc4c(c3)NC(=O)C(CSCc3cccc(F)c3)N4)CC2C)c1 (stereo not given) | inconclusive: 16.4 µM [activator, single point] | 
COc1cc(/C=C2\SC(=S)N(CC(=O)Nc3ccccn3)C2=O)cc(OC)c1OC | inconclusive: 32.6 µM [activator, partial curve, poor fit] | 
Cc1ccc(S(=O)(=O)N2CCCCC2CCNC(=O)C(=O)NCc2ccccc2C)cc1 (stereo not given) | active: 20.6 µM | 
O=C(CC1SC(=Nc2ccccc2F)N(CCN2CCOCC2)C1=O)Nc1ccc(F)cc1F (stereo not given) | inconclusive: 0.0046 µM [activator, full curve, poor fit] | 
CCCOc1ccc(-c2nc(N3CCN(CC)CC3)c3ccccc3n2)cc1 | inconclusive: 16.4 µM [activator, partial curve] | 
O=C(C1CCC(CNc2nc(=S)[nH]c3ccccc23)CC1)N1CCN(c2ccc(F)cc2)CC1 (stereo not given) | inconclusive: 2.91 µM [activator, full curve, poor fit] | 
C[C@H](CO)N1C[C@H](C)[C@@H](CN(C)S(=O)(=O)c2cn(C)cn2)Oc2ccc(NC(=O)C3CCCCC3)cc2C1=O | inconclusive: 0.103 µM [activator, full curve, poor fit] | 
Cc1[nH]c2ccccc2c1C(=O)COC(=O)c1ccc([N+](=O)[O-])s1 | inconclusive: 7.31 µM [activator, partial curve, poor fit] | 
CC(=O)c1ccc(S(=O)(=O)Nc2cccc(-n3cnnn3)c2)cc1 | inconclusive: 29.1 µM [activator, partial curve, poor fit] | 
O=C(NCc1ccco1)C1CCCN1C(=O)Nc1ccc(Cl)cc1 (stereo not given) |  | inactive: -54.7%
COC(=O)CNC(=O)COC(=O)/C=C/c1ccc2ccccc2n1 | inconclusive: 29.1 µM [activator, partial curve, poor fit] | 

Structure (SMILES) | Potency | re-replication activation
Cc1c(C(=O)NC2CCCC2)oc2ccccc12 | inconclusive: 0.146 µM [activator, partial curve, poor fit] | 
Cc1cc(C)cc(N(CC(=O)NCc2ccc(F)cc2)C(=O)c2snc(C(N)=O)c2N)c1 | inconclusive: 18.4 µM [activator, single point] | 
CN1CCN(C(=O)/C(=C/c2ccc(F)cc2)NC(=O)c2ccccc2)CC1 | inconclusive: 18.4 µM [activator, single point] | 
CN(CC(=O)Nc1ccccc1Cl)C(=O)COC(=O)c1nc(Cl)c(Cl)c(Cl)c1Cl | inconclusive: 6.51 µM [activator, single point] | 
O=C(c1ccccc1)N1CCN(c2ccc(N3CCOCC3)nn2)CC1 |  | inactive: -7.2%
Cc1ccc(NC(=O)CC2=NC(=O)C(CC(=O)Nc3ccccc3F)S2)cc1 (stereo not given) | inconclusive: 23.1 µM [activator, single point] | 
O=C1[C@H](Oc2ccccc2)[C@@H](c2ccccc2)N1c1ccncc1 | inconclusive: 18.4 µM [activator, single point] | 
CC1CC2(CC(C)(C(=O)CSc3n[nH]c(-c4ccccc4Cl)n3)OC2=O)C(=O)O1 (stereo not given) | inconclusive: 29.1 µM [activator, single point] | 
Cc1cccc(NC(=O)Nc2ccccc2[N+](=O)[O-])n1 |  | inactive: -1.11%
COc1ccc2[nH]c3c(=O)n(CCCC(=O)NC4CCCCC4C)c(=S)[nH]c3c2c1 (stereo not given) | inconclusive: 18.4 µM [activator, single point] | 
CC(C)Nc1nnc(SC(C)C(=O)N(C)C2CCCCC2)s1 (stereo not given) | inconclusive: 29.1 µM [activator, single point] | 
COc1ccc(NC(C)C(=O)N/N=C/c2ccc([N+](=O)[O-])s2)cc1 (stereo not given) | inconclusive: 29.1 µM [activator, partial curve, poor fit] | 
Cc1cc(C)cc(NC(=O)Nc2ccc3c(c2)CCC3)c1 | inconclusive: 29.1 µM [activator, partial curve, poor fit] | 
CCOC(=O)c1ccc(-c2c(-c3ccc4c(c3)OCO4)noc2-c2ccsc2)cc1F | inconclusive: 23.1 µM [activator, single point] | 
COc1ccc(OC)c(S(=O)(=O)ON2C(=O)c3ccccc3C2=O)c1 | inconclusive: 5.17 µM [activator, full curve] | 
CC1CC(C)(C)NC(=S)N1CCC(=O)Nc1ccc2c(c1)OCCO2 (stereo not given) | inconclusive: 25.9 µM [activator, single point] | 
CCn1cc([N+](=O)[O-])c(C(=O)N2N=C(c3ccc4ccccc4c3)CC2c2cc(Br)ccc2O)n1 (stereo not given) | inconclusive: 31.6 µM [activator, single point] | 
CCOC(=O)c1c(S(=O)(=O)NCC(=O)Nc2ccc(OC)cc2)c(C)n(C)c1C |  | inactive: -25%
CCOCCCNC(=O)c1cc2c(=O)[nH]c3ccccc3c2s1 |  | inactive: 0.376%
Cc1ccc(-c2csc(N(CCCN(C)C)C(=O)c3ccco3)n2)cc1 | inconclusive: 20.6 µM [activator, single point] | 

Some values from above:
O=C(c1ccccc1)N1CCN(c2ccc(N3CCOCC3)nn2)CC1 – re-replication activation: inactive: -7.2%
CN(CC(=O)Nc1ccccc1Cl)C(=O)COC(=O)c1nc(Cl)c(Cl)c(Cl)c1Cl – Potency: inconclusive: 6.51 µM [activator, single point]
